These are yes or no findings as the source states them, for the method shown. Binding seen in cells or lysates may run through a third protein. Some results given as binding are weak or reduced against the parent protein; the word gives no strength. Sequences can lack the tags named with a protein.

By UniProt entry, the sequences of proteins in these tests, tags left out.
UniProt Q13547: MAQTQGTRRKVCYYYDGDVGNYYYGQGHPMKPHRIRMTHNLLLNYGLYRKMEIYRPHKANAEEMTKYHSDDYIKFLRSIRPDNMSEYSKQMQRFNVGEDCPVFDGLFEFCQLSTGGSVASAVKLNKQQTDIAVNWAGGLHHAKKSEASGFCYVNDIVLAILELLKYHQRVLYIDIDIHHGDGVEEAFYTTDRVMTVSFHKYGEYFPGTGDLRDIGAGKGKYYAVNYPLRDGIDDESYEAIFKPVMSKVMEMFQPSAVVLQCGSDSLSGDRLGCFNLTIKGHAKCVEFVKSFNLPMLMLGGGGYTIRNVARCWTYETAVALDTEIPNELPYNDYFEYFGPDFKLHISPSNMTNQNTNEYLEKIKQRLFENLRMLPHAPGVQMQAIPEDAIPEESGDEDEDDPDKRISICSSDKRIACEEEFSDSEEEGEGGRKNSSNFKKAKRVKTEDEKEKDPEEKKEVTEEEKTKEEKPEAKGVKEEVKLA

The assay has as its target T1, Kaiso-Flag (human) (UniProt Q86T24).
T1 sequence: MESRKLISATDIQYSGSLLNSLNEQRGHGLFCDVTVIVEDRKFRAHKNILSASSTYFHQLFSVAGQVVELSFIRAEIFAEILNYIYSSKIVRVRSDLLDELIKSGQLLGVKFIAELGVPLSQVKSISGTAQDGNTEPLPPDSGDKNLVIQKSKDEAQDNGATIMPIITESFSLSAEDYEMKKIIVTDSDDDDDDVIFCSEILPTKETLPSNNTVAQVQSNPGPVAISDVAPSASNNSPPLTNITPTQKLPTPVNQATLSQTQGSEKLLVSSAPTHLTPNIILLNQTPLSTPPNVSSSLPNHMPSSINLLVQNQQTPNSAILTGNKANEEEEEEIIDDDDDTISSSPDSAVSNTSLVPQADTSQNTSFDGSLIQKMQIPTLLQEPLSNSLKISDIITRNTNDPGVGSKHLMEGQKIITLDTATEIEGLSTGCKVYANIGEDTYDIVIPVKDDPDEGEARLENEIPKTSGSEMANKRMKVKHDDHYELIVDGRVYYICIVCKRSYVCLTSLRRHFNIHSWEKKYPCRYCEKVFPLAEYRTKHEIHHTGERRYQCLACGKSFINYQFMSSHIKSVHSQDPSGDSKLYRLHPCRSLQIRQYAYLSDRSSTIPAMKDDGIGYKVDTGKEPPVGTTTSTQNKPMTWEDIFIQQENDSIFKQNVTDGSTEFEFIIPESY
Kind of assay: co-IP.

In the case of HDAC1-HA (from UniProt Q13547 1-482), the binding result is “binds”.

The record behind these values is publication doi:10.1101/2025.09.29.675399.
